Patent publication EP1780277A1
Results are given in words; binding and its absence hold for the method and conditions named. For some of these results: In cells and extracts the contact can be indirect. Some binding calls cover weakened binding; strength is not graded here. For some of these results: Sequences can lack the tags named with a protein.

Protein sequences, listed by entry. Tags and fused reporters are not part of them. Lines headed by an entry give the natural chain unless they say otherwise; changes in a name come on top.
UniProt Q99873: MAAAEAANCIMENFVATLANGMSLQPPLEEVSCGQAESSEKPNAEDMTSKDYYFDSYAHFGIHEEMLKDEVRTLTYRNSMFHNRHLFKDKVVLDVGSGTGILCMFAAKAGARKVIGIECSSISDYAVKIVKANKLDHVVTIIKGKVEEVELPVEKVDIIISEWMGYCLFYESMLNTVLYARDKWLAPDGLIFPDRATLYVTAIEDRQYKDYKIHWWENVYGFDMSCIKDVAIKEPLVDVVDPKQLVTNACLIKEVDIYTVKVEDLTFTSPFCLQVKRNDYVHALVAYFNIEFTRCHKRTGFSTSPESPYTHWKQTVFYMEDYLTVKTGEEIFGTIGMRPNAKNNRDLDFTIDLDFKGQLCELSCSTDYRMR

How the values were obtained:
[1] = target: T1, IFNAR1-IC domain fused to the Gal4 DNA-binding domain (pGBT10-IFNAR1-IC) (human) (UniProt P04386+P17181); test: yeast two-hybrid
[2] = target: T1, IFNAR1-IC domain fused to the Gal4 DNA-binding domain (pGBT10-IFNAR1-IC) (human); test: yeast two-hybrid in SFY526
[3] = target: T1, IFNAR1-IC domain fused to the Gal4 DNA-binding domain (pGBT10-IFNAR1-IC) (human); test: yeast two-hybrid in SFY526, X-gal staining positive in streak 3
[4] = target: T2, GST-IFNAR1-IC fusion protein (human) (UniProt P17181); test: GST pull-down in vitro
T2 sequence (looked up): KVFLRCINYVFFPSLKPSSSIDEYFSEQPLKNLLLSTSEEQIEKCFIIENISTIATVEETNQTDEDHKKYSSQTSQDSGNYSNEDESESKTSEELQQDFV

[5] = target: T2, GST-IFNAR1-IC fusion protein (human); test: GST pull-down of 35S-labeled in vitro translated flag-IR1B4, SDS-PAGE
[6] = target: intact IFNAR1 from human cells (human) (UniProt P17181); test: co-immunoprecipitation with anti-IFNAR1 mAb R3 on protein G beads, SDS-PAGE
[7] = target: intact IFNAR1 from human cells (human) (UniProt P17181); test: co-immunoprecipitation: 35S-labeled flag-IR1B4 mixed with U266S detergent extracts and precipitated with mAb IFNaR3 or Ab 631; IFNAR1 precipitated by anti-flag from Cos-7 cells given both cDNAs

Measured: binding

IR1B4 fused to the Gal4 activation domain (pACT clone IR1B4) (from UniProt Q99873 11-371)
binds: [1] | [2] | [3]

flag-IR1B4 fusion protein, [35S]methionine-labeled in vitro translation product (from UniProt Q99873 11-371)
binds: [4] | [5] | [6] | [7]
